The source of these data is the supplement of paper PMC11732987, “Enantioselective OTUD7B fragment discovery through chemoproteomics screening and high-throughput optimisation” (Communications Chemistry, 2025).

The chains behind the UniProt entries cited, without tags or fusion partners. Where a name states a change or a piece, a line headed by the entry shows the natural chain unless it says otherwise. Residues count along the entry.
UniProt Q13216, whole entry, looked up: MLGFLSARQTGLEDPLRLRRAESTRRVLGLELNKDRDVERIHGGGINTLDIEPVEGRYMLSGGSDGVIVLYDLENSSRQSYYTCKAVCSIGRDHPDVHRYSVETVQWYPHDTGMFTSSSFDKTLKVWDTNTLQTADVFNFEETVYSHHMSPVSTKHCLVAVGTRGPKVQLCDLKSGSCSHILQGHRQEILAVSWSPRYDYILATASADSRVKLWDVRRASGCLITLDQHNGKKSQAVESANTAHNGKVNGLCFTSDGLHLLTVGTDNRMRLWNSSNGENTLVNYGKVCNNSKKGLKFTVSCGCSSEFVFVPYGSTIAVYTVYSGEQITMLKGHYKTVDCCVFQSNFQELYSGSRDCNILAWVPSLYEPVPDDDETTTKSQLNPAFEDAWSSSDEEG
UniProt P41212: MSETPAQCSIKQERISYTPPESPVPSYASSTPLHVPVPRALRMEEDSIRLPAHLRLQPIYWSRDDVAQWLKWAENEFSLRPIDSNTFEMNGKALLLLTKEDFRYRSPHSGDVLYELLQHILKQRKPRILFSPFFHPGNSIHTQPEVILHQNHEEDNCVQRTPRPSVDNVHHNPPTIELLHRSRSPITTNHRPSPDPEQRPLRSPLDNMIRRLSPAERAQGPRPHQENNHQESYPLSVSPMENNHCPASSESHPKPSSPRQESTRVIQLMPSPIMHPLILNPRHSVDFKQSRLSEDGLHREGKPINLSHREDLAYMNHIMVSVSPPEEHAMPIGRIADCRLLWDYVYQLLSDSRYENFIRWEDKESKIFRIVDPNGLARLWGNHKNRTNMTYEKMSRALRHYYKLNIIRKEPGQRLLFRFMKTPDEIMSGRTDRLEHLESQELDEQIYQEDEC
UniProt P19447: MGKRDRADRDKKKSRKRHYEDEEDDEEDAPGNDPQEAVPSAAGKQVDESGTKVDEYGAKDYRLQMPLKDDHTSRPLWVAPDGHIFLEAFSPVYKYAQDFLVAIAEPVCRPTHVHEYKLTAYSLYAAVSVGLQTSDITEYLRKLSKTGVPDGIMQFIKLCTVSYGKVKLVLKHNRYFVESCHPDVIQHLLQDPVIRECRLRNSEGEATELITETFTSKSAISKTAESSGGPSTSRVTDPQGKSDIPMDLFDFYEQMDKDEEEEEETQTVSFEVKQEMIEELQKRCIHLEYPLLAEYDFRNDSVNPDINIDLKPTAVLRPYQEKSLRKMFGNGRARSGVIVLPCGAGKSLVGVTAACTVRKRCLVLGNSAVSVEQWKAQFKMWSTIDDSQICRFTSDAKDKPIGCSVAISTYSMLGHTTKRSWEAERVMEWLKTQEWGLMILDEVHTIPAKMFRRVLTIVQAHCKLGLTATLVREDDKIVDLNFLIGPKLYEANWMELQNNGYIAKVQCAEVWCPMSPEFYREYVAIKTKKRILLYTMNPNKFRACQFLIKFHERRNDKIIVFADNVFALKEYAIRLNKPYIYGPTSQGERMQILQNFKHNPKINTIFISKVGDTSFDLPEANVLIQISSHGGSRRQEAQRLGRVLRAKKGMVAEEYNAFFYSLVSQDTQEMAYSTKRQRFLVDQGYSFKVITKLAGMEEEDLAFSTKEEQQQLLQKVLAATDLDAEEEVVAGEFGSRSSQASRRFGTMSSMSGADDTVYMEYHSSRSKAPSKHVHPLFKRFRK
UniProt Q5J8M3, whole entry, looked up: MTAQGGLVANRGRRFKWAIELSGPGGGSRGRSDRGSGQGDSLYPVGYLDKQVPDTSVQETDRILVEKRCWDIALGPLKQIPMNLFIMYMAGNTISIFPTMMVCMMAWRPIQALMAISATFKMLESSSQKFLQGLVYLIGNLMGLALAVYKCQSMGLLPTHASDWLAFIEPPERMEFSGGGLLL
UniProt O43402: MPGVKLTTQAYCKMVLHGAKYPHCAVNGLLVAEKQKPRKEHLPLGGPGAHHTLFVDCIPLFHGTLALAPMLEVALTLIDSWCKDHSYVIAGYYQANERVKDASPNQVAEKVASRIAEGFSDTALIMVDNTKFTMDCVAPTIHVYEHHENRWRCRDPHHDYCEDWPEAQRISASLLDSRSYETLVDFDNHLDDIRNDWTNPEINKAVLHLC
UniProt Q6P1L5: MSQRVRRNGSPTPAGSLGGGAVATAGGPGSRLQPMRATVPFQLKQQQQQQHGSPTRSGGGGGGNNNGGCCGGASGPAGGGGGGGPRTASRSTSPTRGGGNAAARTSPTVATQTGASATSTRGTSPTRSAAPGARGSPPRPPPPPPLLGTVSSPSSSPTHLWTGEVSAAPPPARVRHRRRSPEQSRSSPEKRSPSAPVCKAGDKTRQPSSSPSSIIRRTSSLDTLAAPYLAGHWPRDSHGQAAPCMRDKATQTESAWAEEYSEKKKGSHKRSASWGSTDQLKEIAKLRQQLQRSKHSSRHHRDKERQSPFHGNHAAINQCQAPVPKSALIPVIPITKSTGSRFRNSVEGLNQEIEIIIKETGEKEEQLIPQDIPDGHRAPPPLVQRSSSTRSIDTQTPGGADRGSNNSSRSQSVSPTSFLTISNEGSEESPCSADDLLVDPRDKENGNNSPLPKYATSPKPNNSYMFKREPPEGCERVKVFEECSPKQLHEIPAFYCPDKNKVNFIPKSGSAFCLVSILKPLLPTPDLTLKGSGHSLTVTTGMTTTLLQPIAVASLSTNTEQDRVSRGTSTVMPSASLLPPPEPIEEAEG
UniProt Q6IA86, 121-140: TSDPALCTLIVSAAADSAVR
UniProt Q9NQT5: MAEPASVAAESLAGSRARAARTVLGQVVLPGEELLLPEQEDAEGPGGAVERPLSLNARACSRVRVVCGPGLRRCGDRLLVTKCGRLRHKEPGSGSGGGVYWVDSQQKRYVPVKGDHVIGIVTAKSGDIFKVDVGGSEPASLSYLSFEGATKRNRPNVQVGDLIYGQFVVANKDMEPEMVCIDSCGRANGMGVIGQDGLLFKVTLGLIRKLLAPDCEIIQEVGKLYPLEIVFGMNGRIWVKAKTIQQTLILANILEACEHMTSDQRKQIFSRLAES
UniProt Q9NVH0: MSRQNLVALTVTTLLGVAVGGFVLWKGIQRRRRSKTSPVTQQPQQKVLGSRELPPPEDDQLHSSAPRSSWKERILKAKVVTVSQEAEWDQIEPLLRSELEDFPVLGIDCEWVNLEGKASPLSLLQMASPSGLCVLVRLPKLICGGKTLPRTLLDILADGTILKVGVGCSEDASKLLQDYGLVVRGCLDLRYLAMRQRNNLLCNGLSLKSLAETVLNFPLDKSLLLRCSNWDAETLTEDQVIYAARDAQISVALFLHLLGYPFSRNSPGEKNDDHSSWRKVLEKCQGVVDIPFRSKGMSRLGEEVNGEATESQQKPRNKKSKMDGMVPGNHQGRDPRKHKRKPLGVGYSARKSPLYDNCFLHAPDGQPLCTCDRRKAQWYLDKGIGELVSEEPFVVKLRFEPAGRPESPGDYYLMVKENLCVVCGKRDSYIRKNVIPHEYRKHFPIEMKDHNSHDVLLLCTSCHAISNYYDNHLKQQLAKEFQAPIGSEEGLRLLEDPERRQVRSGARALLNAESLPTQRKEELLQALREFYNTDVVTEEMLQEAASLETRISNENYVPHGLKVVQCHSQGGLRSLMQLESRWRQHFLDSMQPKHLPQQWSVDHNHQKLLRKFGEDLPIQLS
UniProt Q658Y4: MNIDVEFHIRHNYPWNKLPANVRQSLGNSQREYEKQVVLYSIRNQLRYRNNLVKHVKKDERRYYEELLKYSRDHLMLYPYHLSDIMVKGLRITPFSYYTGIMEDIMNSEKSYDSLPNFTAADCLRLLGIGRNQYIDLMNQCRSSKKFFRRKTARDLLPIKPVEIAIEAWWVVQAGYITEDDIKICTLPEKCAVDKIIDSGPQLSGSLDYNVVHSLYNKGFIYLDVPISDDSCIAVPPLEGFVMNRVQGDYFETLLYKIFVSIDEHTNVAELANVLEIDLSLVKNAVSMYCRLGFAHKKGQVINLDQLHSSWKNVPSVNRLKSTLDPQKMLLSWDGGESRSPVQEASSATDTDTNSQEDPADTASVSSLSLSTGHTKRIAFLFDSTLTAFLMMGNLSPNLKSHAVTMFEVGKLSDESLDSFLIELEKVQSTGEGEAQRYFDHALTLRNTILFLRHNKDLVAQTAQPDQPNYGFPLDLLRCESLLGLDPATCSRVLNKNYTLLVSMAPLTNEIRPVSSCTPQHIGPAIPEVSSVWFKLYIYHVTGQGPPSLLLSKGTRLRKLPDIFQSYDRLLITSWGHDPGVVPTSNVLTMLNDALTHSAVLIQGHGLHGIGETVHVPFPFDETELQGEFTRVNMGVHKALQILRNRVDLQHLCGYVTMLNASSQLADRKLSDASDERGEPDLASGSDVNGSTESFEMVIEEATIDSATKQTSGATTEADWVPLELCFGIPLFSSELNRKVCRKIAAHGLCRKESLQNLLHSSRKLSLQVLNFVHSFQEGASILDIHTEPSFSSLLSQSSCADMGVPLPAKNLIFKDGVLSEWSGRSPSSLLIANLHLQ
UniProt Q96EB1, 2-23: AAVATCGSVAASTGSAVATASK
UniProt Q9NVI1: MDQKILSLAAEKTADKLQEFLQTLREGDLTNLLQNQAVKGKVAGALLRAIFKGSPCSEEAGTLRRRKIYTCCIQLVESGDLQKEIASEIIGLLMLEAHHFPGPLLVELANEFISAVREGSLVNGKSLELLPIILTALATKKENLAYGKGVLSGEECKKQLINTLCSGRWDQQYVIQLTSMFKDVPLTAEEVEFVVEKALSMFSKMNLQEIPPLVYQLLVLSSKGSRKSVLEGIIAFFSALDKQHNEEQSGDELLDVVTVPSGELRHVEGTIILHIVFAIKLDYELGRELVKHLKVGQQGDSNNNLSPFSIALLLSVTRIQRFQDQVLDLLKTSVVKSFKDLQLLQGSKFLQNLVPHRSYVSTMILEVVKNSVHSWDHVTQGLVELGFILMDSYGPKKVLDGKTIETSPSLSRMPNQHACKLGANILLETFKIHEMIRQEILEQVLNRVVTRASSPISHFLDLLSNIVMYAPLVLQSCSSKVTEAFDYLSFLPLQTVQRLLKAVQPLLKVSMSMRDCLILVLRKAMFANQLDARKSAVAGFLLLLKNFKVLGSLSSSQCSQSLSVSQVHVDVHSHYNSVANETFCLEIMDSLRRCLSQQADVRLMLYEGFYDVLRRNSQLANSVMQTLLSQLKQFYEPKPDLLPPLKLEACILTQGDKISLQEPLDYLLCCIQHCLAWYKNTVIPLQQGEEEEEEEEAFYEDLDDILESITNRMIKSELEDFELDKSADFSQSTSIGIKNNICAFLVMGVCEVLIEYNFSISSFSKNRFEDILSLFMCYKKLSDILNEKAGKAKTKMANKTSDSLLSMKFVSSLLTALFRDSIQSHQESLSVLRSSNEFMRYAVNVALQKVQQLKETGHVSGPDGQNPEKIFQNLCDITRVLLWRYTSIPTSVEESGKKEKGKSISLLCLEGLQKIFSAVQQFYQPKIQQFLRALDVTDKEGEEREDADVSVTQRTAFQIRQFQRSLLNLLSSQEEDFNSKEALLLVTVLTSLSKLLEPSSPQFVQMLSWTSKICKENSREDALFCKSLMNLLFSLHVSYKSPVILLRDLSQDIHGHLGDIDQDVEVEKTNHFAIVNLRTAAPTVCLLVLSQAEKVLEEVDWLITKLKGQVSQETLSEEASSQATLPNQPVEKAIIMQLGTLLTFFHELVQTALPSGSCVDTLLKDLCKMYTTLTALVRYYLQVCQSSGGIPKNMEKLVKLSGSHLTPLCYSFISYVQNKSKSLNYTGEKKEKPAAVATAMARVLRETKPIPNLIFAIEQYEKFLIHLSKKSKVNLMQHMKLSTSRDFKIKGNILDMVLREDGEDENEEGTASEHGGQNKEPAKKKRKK
UniProt O60447: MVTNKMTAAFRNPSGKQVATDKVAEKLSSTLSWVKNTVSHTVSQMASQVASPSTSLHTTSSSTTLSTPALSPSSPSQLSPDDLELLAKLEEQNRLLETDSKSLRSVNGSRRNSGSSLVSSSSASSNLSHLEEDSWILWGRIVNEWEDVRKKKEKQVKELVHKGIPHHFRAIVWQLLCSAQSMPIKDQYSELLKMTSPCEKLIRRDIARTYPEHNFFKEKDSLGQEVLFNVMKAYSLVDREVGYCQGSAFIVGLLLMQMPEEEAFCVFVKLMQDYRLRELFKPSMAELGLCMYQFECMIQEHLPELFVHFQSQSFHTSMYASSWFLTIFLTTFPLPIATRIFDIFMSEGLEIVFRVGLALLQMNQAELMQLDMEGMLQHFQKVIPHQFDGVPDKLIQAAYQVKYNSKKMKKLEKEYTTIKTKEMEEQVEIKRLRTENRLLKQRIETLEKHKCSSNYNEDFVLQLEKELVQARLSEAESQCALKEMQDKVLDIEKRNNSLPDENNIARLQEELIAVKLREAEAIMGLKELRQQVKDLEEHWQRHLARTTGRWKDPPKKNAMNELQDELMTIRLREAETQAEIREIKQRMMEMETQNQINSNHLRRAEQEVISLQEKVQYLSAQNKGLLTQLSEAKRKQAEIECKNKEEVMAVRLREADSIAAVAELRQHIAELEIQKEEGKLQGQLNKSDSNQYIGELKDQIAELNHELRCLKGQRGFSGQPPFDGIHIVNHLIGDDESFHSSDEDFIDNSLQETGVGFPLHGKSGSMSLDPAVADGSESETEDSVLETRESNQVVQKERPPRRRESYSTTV

The list shows a part of the results. The data scatter; read single values as rough.

Compound in the first experiment: ClCC(=O)N[C@@H]1CCCc2ccccc12
The experiment is described as follows: log2 mean competition ratio of IA-DTB cysteine labelling (DMSO/compound) (log2 ratio); higher = stronger cysteine engagement by compound. The note with it: 50 µM; treatment time: 4 h; cell line lysate: HEK293T. As to the method: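 IA-DTB competitive cysteine chemoproteomics in HEK293T RIPA lysate. Lysates were treated with compound 29 or 30 at 50 or 200 µM for 4 h, then IA-DTB (500 µM, 1 h), trypsin-digested, NeutrAvidin-enriched and analysed by diaPASEF. Competition ratio = intensity DMSO / intensity compound (n=4 treated, n=64 DMSO); binding: mean log2 CR ≥ 1 and p ≤ 0.05 plus QC filters. Target is the cysteine site.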
Turning to ELMO1 C411 (UniProt Q92556), the “log2 mean competition ratio” value was found to be 0.24.

As to ERCC2 C588 (UniProt P18074), the “log2 mean competition ratio” value was -0.0691.

FAM126B C7 (UniProt Q8IXS8): the “log2 mean competition ratio” value stood at 0.219.

For the target ERCC8 C88 (UniProt Q13216), the “log2 mean competition ratio” value is -0.216.

As to ETV6 C8 (UniProt P41212), the “log2 mean competition ratio” value was -0.203.

Take ELL C595 (UniProt P55199): the “log2 mean competition ratio” value was found to be 0.169.

As to FAM135A C863 (UniProt Q9P2D6), the “log2 mean competition ratio” value was -0.0679.

Turning to ENOX2 C216, the “log2 mean competition ratio” value is -0.305.

Turning to ERCC3 C342 (UniProt P19447), the “log2 mean competition ratio” value is -0.047.

On to EMC4 C69 (UniProt Q5J8M3), for which the “log2 mean competition ratio” value was determined as 0.399.

In the case of EMC8 C161 (UniProt O43402), the “log2 mean competition ratio” value was -0.576.

Turning to EXPH5 C1311, the “log2 mean competition ratio” value is -0.0116.

Turning to ENPP1 C6, the “log2 mean competition ratio” value is -0.21.

On to FAM53B C87 (UniProt Q14153), for which the “log2 mean competition ratio” value was determined as 0.146.

Turning to ESD C11 (UniProt P10768), the “log2 mean competition ratio” value is -0.366.

Turning to EPB41L2 C232 (UniProt O43491), the “log2 mean competition ratio” value was -0.236.

ERCC2 C259 (UniProt P18074): the “log2 mean competition ratio” value was found to be 0.286.

Take FAM117B C244 (UniProt Q6P1L5): the “log2 mean competition ratio” value is 0.134.

On to ENAH C7 (UniProt Q8N8S7), for which the “log2 mean competition ratio” value was -0.248.

For the target ELP1 C820 (UniProt O95163), the “log2 mean competition ratio” value was -0.256.

Turning to ESYT2 C611, the “log2 mean competition ratio” value is -0.257.

Take ELP2 C127 (UniProt Q6IA86): the “log2 mean competition ratio” value was determined as 0.0592.

With EXOC5 C254 (UniProt O00471), the “log2 mean competition ratio” value was -0.164.

Turning to EXOSC3 C215 (UniProt Q9NQT5), the “log2 mean competition ratio” value was -0.0916.

For ENGASE C113 (UniProt Q8NFI3), the “log2 mean competition ratio” value amounted to 0.036.

Turning to EXD2 C284 (UniProt Q9NVH0), the “log2 mean competition ratio” value was found to be 0.024.

For FAM91A1 C141 (UniProt Q658Y4), the “log2 mean competition ratio” value is -0.0402.

As for ERCC6 C143, the “log2 mean competition ratio” value was -0.126.

For ERI3 C313, the “log2 mean competition ratio” value was found to be 0.43.

With ELP4 C7 (UniProt Q96EB1), the “log2 mean competition ratio” value was -0.325.

In the case of FANCI C594 (UniProt Q9NVI1), the “log2 mean competition ratio” value is -0.0217.

Regarding EML4 C82 (UniProt Q9HC35), the “log2 mean competition ratio” value was determined as 0.183.

As for “ERO1A_(C99,C99,C104,C104) (UniProt Q96HE7)”, the “log2 mean competition ratio” value worked out at 0.00205.

As for EVI5 C479 (UniProt O60447), the “log2 mean competition ratio” value is -0.0885.

As for ERCC6L C587 (UniProt Q2NKX8), the “log2 mean competition ratio” value is 0.0425.

As to ETHE1 C170 (UniProt O95571), the “log2 mean competition ratio” value was -0.0904.

Regarding ERCC2 C116 (UniProt P18074), the “log2 mean competition ratio” value is 0.195.

Staying with this experiment, now noted: 200 µM; treatment time: 4 h; cell line lysate: HEK293T.
Turning to ELMO1 C411 (UniProt Q92556), the “log2 mean competition ratio” value was found to be 0.681.

As to ERCC2 C588 (UniProt P18074), the “log2 mean competition ratio” value is -0.107.

FAM126B C7 (UniProt Q8IXS8): the “log2 mean competition ratio” value is 0.519.

Take ERCC8 C88 (UniProt Q13216): the “log2 mean competition ratio” value was -0.16.

Turning to ETV6 C8 (UniProt P41212), the “log2 mean competition ratio” value was -0.174.

As for ELL C595 (UniProt P55199), the “log2 mean competition ratio” value was 0.288.

As to FAM135A C863 (UniProt Q9P2D6), the “log2 mean competition ratio” value stood at 0.115.

As to ENOX2 C216, the “log2 mean competition ratio” value is -0.0933.

On to ERCC3 C342 (UniProt P19447), for which the “log2 mean competition ratio” value is -0.0725.

EMC4 C69 (UniProt Q5J8M3): the “log2 mean competition ratio” value turned out to be 0.0269.

As for EMC8 C161 (UniProt O43402), the “log2 mean competition ratio” value is -0.121.

Consider EXPH5 C1311, for which the “log2 mean competition ratio” value is -0.00322.

With ENPP1 C6, the “log2 mean competition ratio” value came to 0.211.

FAM53B C87 (UniProt Q14153): the “log2 mean competition ratio” value was determined as 0.16.

Take ESD C11 (UniProt P10768): the “log2 mean competition ratio” value stood at 0.292.

In the case of EPB41L2 C232 (UniProt O43491), the “log2 mean competition ratio” value was -0.199.

As for ERCC2 C259 (UniProt P18074), the “log2 mean competition ratio” value was 0.00963.

With FAM117B C244 (UniProt Q6P1L5), the “log2 mean competition ratio” value worked out at 0.0274.

For the target ENAH C7 (UniProt Q8N8S7), the “log2 mean competition ratio” value was 0.468.

ELP1 C820 (UniProt O95163): the “log2 mean competition ratio” value was 0.397.

As to ESYT2 C611, the “log2 mean competition ratio” value is -0.128.

On to ELP2 C127 (UniProt Q6IA86), for which the “log2 mean competition ratio” value was -0.537.

On to EXOC5 C254 (UniProt O00471), for which the “log2 mean competition ratio” value is -0.165.

For the target EXOSC3 C215 (UniProt Q9NQT5), the “log2 mean competition ratio” value is -0.39.

Regarding ENGASE C113 (UniProt Q8NFI3), the “log2 mean competition ratio” value amounted to 0.0176.

For EXD2 C284 (UniProt Q9NVH0), the “log2 mean competition ratio” value was -0.0206.

For FAM91A1 C141 (UniProt Q658Y4), the “log2 mean competition ratio” value was 0.0357.

For ERCC6 C143, the “log2 mean competition ratio” value is -0.389.

Regarding ERI3 C313, the “log2 mean competition ratio” value turned out to be 0.546.

As to ELP4 C7 (UniProt Q96EB1), the “log2 mean competition ratio” value is 0.0824.

As for FANCI C594 (UniProt Q9NVI1), the “log2 mean competition ratio” value is -0.0152.

On to EML4 C82 (UniProt Q9HC35), for which the “log2 mean competition ratio” value was -0.026.

As to “ERO1A_(C99,C99,C104,C104) (UniProt Q96HE7)”, the “log2 mean competition ratio” value was found to be 0.197.

Regarding EVI5 C479 (UniProt O60447), the “log2 mean competition ratio” value was -0.0453.

ERCC6L C587 (UniProt Q2NKX8): the “log2 mean competition ratio” value worked out at 0.0405.

For the target ETHE1 C170 (UniProt O95571), the “log2 mean competition ratio” value is -0.0851.

Consider ERCC2 C116 (UniProt P18074), for which the “log2 mean competition ratio” value was -0.302.
